Library screening results

Mtb growth Cornell: 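Whole-cell assay for inhibitors of Mycobacterium tuberculosis growth, labelled Cornell in the record; the read-out is not stated. The concentration is filed as 10 mM, unlikely as a test dose, so the dose is not known. Higher means stronger inhibition (inferred from two other growth screens of the library). Of about 53,000 compounds tested this way, about 900 (1.7%) reached 50% or more in at least one test.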
Mtb heat-shock: 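Assay on Mycobacterium tuberculosis, filed only as a heat shock assay from Cornell; the read-out is not stated. The concentration is filed as 10 mM, unlikely as a test dose, so the dose is not known. The record gives no direction; compounds that gave an IC50 in retests scored well above the rest, so higher reads as stronger inhibition. Of about 69,000 compounds tested this way, about 930 (1.4%) reached 50% or more in at least one test.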

Values are the deposited “Percent Effect”, in %.
The record does not define 0% and 100%; most values in the screen are far below 50% and negative numbers occur (in some assays of this library far below -100).
The compounds are a random part of those screened.
A dash means the value is not listed here; it may have been measured.

Compound | Mtb growth Cornell | Mtb heat-shock
CN(C)CC(=O)N1CCCCC1c1nc(N)ncc1-c1ccccc1 (centres unmarked) | -13.88 | -5.28
Cc1nn(C)c(C)c1C1CCCN1C(=O)c1ccc(CN(C)C)cc1 (centres unmarked) | -7.124 | -18.32
CN(CCc1cccs1)CCc1nccs1 | 15.52 | -4.085
O=C(c1ccc(Br)o1)N1CCN(Cc2ccc(F)cc2)CC1 | 16.06 | 0.8002
CCc1nccn1-c1cccc(C2CCN(C(=O)COC)CC2)n1 | -11.56 | -16.09
CC(=O)NC1CCCN(C(=O)NCc2cc[nH]n2)C1 (centres unmarked) | -3.961 | -7.876
Cl.O=c1c2sccc2nc2n1CCN(Cc1ccsc1)CC2 | -25.79 | -19.75
COc1cccc(CN2CCN(CC(C)C)C(=O)C2C)c1O (centres unmarked) | 28.6 | -12.62
Cc1c(C(=O)N2CCN(C)CC2)n(C)c2ccc(Cl)cc12 | 29.74 | -18.75
COc1cc(CNc2cc(-c3nncn3C)ccn2)cc(OC)c1OC | - | 7.574
CC(=O)N(C)c1nc(CN2CCN(Cc3nccn3C)CC2)cs1 | -0.7248 | -35.35
CN1CCCC(CCC(=O)NCCCn2ncc3ccccc32)C1 (centres unmarked) | -24.89 | -13.97
c1ccc2c(c1)OCCC2NCc1ccc(N2CCOCC2)cc1 (centres unmarked) | 17.57 | -10.27
OCCN1CCC(c2csc(Nc3cnccn3)n2)CC1 | -21.31 | -38.75
O=C(CSc1ccc2c(c1)OCCO2)NS(=O)(=O)c1cccnc1 | -19.14 | -28.32
Cc1ncncc1C(=O)NCCN1CCC(C)CC1 | -53.56 | 2.82
Cc1noc(C)c1CN1CCN(Cc2nccn2C)CC1 | - | 5.529
Cc1cc(NC(=O)C(c2cccc(F)c2)N2CCOCC2)sn1 (centres unmarked) | -15.26 | -15.09
CN(C)Cc1cncc2c1CCN(Cc1ccoc1)C2.Cl.Cl.Cl | -2.943 | -10.16
CSc1cccc(CN2CCC(CCC(=O)NCCN(C)C)CC2)c1 | 13.35 | -2.889
[H][C@@]12CCCO[C@]1([H])[C@H](Oc1cccnc1)CN2C(=O)Cc1ccccn1 | -39.19 | -9.116
Cc1ccc2c(n1)N(Cc1cccnc1)CCN(C(=O)C1CC1)C2.O=C(O)C(F)(F)F.O=C(O)C(F)(F)F | 27.79 | -27.88
O=C(NCc1cccnc1N1CCCC(O)C1)c1ccc2[nH]nnc2c1 (centres unmarked) | 3.451 | -25.5
COCc1nc(N(C)C/C=C/c2ccccc2)c2cnn(C)c2n1 | 21.07 | 8.627
COCCCN1CC2(CCC1=O)CCN(Cc1cc(C)no1)CC2 | 21.6 | 4.632
CCCn1ncc(C(=O)N2CCN(C3CCSCC3)CC2)c1C | 9.368 | -16.54
CN1CC(c2ccccc2)CC12CCN(C(=O)c1ccncc1)CC2 (centres unmarked) | - | 5.144
Cc1ccccc1-n1cc(C2=CCN(CCN3CCOCC3)CC2)cn1 | -14.65 | -55.34
Cc1nn(C)c(C)c1CN(C)C(=O)c1cccc(CCC(C)(C)O)c1 | -13.59 | -6.014
Cc1ccc(C)c(C(=O)CN2C(=O)c3ccccc3CS2(=O)=O)c1 | - | -17.38
CC(C)NC(=O)CC1COC2(CCN(Cc3cccs3)CC2)C1.O=C(O)C(F)(F)F (centres unmarked) | 12.69 | -16.98
c1cnnc(N2CCCC2CNCc2cscn2)c1 (centres unmarked) | - | 21.52
Cc1cc(C(=O)Nc2cnn(CC(=O)NC3CCCC3)c2)c(C)s1 | -23.54 | 2.029
c1cn(CC2CC2)c(C2CCN(CCC3CCOC3)CC2)n1 (centres unmarked) | -0.07583 | -12.92
CC(=O)NC1CCCN(c2nc3ccccc3cc2CO)C1 (centres unmarked) | - | 15.83
CC(C)(C)c1n[nH]c(C2CN(C(=O)Cn3ccccc3=O)CCO2)n1 (centres unmarked) | -2.817 | -4.821
Cc1cnn(CC2CCCN2CC(=O)N(C)Cc2ccc(C)o2)c1 (centres unmarked) | - | 24.58
Cc1cccc2c1N(C)C(=O)C21CC(=O)Nc2c1cnn2C(C)(C)C (centres unmarked) | 11.42 | -26.01
CNC(=O)C1Cc2ccccc2CN1CCC#N (centres unmarked) | - | -42
CCS(=O)(=O)N1CCOCC2(CCN(c3ccccn3)C2)C1.O=C(O)C(F)(F)F (centres unmarked) | 20.78 | -24.76
CCn1ccnc1CN1CCCn2nc(CNC(=O)C3CCC3)cc2C1 | 26.87 | 4.039
CCCOC1CCCN(C(=O)c2cnc(-c3csc(C)n3)nc2O)C1 (centres unmarked) | -33.45 | 12.71
Cc1ccc(C(=O)NCCSCc2cccs2)cn1 | - | 27.07
[H][C@@]12CCCN[C@]1([H])[C@@H](c1cccc(OC)c1)CN2C(=O)c1ccccc1 | -3.381 | 23.76
CN1Cc2ccccc2CC2(CCN(C(=O)N3CCOCC3)CC2)C1=O | -25.68 | -0.305
CSCCN1C(=O)CC(C)(c2ccc(Br)cc2)C1=O (centres unmarked) | 18.64 | 13.76
Cc1cc(NC(=O)CN(c2ccccc2)C(C)C)on1 | -8.968 | -6.312
O=C(Cc1cn2ccsc2n1)N1CCCC(n2cncn2)C1 (centres unmarked) | -4.272 | 23.61
O=S(=O)(c1ccccc1Br)N1CCC2(CC1)OCCS2 | 54.27 | -20.08
CO[C@@H]1CCN(C2CCOCC2)C[C@@H]1Cc1ccccc1.O=C(O)C(F)(F)F | - | -2.691
Cc1cc(CN(C)C(=O)Nc2ccccc2C)no1 | 1.026 | -2.79
Cc1nc(C(=O)N2CCCC2c2c(C)nn(C)c2C)cs1 (centres unmarked) | -5.933 | 4.151
CN(C)CCNC(=O)c1ccc(OC2CCN(C3CCC3)CC2)c(Cl)c1 | - | 8.159
Cc1nn(C)c(N2CCOCC2)c1CN[C@@H]1c2ccccc2C[C@@H]1O | - | -9.102
CC(C)Cc1nc(CN(C)c2cc(C(C)C)nc3ccnn23)no1 | 19.44 | 23.84
CC(=O)Nc1ccccc1Sc1nc(Br)nn1C | - | -17.49
CN(CC(=O)N1CC(Oc2ccccc2Cl)C1)Cc1ccncc1 | -19.05 | -4.304
Cc1ccc(-c2nc(CN3CCOC(Cn4cccn4)C3)co2)cc1 (centres unmarked) | 14.64 | -5.395
CCN(CC)C(=O)N1CCN(CCc2ccncc2)CC1 | 33.84 | -12.95
Cc1cccc(CC(=O)NC2CCN(C(=O)NC(C)(C)C)CC2)c1 | -29.5 | -5.526
CCCc1nc(N2CCC(CCO)CC2)c2cnn(C)c2n1 | 18.51 | -4.407
CC(C)(C)n1cc(C(=O)N2CCN(Cc3ccncc3)CC2)cn1 | - | -12.01
O=C(NCCc1c[nH]cn1)C1CCCN(Cc2ccco2)C1 (centres unmarked) | -2.077 | -31.82
O=C(N[C@@H]1CC[C@@H](N2CCOCC2)[C@@H]1O)c1cnn2cccnc12 | -43.29 | -4.691
COc1ccc(SC(C)C(=O)N2CCC(O)CC2)cc1 (centres unmarked) | 10.61 | 5.288
Cc1noc(C2(C)CCCN(C(=O)c3cnn(C)c3)C2)n1 (centres unmarked) | -14.4 | 5.337
Cc1nc(C2CCCN(C(=O)c3cnc(C)s3)C2)no1 (centres unmarked) | -63.64 | -16.44
O=C(Cc1cccc2ccccc12)N1CCC(Nc2cccnn2)CC1 | - | -2.471
O=C(c1cccnc1)N1Cc2[nH]nc(COCCO)c2C1 | 20.59 | -29.43
[H][C@@]12CS(=O)(=O)C[C@]1([H])N(C(=O)c1cc(C(C)C)on1)CCN2C | 2.898 | 11.12
CCc1nc2n(n1)CC(NCc1cc3ccccc3o1)CC2 (centres unmarked) | - | -9.991
[H][C@@]12COC[C@]1(CNS(C)(=O)=O)CN(C(=O)CCc1ccccc1)C2 | -15.83 | 12.82
CC(=O)N1CCN(C(=O)Nc2ccccc2)CC2(CC(=O)N(C)C2)C1 (centres unmarked) | - | -38.72
CC(C)NC(=O)N1Cc2nccn2CC(CN2CCCC2)C1.O=C(O)C(F)(F)F (centres unmarked) | 4.851 | 5.322
O=S(=O)(Cc1ccccc1Cl)N1CCC2(CC1)OCCS2 | 47.83 | -11.56

Repeated from the top, 6 entries:

With CN(C)CC(=O)N1CCCCC1c1nc(N)ncc1-c1ccccc1 (centres unmarked) the screen gave Mtb growth Cornell: -13.88%; Mtb heat-shock: -5.28%.
With Cc1nn(C)c(C)c1C1CCCN1C(=O)c1ccc(CN(C)C)cc1 (centres unmarked) the screen gave Mtb growth Cornell: -7.124%; Mtb heat-shock: -18.32%.
With CN(CCc1cccs1)CCc1nccs1 the screen gave Mtb growth Cornell: 15.52%; Mtb heat-shock: -4.085%.
With O=C(c1ccc(Br)o1)N1CCN(Cc2ccc(F)cc2)CC1 the screen gave Mtb growth Cornell: 16.06%; Mtb heat-shock: 0.8002%.
With CCc1nccn1-c1cccc(C2CCN(C(=O)COC)CC2)n1 the screen gave Mtb growth Cornell: -11.56%; Mtb heat-shock: -16.09%.
With CC(=O)NC1CCCN(C(=O)NCc2cc[nH]n2)C1 (centres unmarked) the screen gave Mtb growth Cornell: -3.961%; Mtb heat-shock: -7.876%.

The values are deposited in ChEMBL (CHEMBL3988442, “University of Dundee, Small-Polar-MMV Screening Library” (2021)).